# Assay results from the supplement of paper PMC12819154, “High-throughput peptide-centric local stability assay extends protein–ligand identification to membrane proteins, tissues and bacteria” (Nature Structural & Molecular Biology, 2025).
# The chains behind the UniProt entries cited, without tags or fusion partners. Where a name states a change or a piece, a line headed by the entry shows the natural chain unless it says otherwise.
# UniProt Q7RTT6, whole entry: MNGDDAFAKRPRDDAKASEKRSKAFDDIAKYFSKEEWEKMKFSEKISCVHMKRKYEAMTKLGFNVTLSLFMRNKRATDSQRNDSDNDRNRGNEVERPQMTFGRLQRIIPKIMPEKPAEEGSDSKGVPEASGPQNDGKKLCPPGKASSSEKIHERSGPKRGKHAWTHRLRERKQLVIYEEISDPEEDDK
# UniProt Q76I76: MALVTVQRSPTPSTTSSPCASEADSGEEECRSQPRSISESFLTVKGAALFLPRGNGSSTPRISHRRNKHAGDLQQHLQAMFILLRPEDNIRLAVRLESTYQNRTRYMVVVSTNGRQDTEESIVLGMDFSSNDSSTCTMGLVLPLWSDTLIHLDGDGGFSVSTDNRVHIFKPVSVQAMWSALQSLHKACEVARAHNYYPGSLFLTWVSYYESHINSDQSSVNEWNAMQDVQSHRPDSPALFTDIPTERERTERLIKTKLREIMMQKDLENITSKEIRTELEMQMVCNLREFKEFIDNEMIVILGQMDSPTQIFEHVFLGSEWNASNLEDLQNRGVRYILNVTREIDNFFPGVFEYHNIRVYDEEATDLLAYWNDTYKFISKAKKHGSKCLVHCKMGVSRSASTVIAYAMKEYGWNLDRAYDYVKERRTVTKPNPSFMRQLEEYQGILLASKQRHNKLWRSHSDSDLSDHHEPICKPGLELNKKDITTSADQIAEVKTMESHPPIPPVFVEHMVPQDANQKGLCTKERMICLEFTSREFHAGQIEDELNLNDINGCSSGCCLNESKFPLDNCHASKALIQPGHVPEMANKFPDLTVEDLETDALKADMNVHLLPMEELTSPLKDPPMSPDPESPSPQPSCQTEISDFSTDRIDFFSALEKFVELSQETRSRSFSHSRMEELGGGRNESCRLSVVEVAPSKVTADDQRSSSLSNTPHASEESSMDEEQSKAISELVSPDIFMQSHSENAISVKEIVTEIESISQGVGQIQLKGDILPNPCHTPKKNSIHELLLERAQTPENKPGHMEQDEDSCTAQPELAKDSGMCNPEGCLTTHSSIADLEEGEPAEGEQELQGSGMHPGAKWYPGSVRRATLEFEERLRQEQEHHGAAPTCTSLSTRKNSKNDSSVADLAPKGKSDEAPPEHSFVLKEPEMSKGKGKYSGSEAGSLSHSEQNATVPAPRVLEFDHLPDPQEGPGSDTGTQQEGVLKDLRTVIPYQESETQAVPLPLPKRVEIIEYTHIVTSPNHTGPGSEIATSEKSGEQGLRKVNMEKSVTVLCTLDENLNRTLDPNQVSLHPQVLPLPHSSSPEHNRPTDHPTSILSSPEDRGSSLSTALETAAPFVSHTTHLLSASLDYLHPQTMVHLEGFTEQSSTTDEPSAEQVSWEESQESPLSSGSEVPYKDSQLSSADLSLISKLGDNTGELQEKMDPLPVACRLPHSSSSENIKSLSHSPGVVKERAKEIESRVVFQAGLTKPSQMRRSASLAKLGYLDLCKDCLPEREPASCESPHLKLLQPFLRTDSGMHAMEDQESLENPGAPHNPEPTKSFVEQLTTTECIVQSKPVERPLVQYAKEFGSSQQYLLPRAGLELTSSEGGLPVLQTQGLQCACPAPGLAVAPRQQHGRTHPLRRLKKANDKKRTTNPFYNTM
# UniProt Q7L2J0: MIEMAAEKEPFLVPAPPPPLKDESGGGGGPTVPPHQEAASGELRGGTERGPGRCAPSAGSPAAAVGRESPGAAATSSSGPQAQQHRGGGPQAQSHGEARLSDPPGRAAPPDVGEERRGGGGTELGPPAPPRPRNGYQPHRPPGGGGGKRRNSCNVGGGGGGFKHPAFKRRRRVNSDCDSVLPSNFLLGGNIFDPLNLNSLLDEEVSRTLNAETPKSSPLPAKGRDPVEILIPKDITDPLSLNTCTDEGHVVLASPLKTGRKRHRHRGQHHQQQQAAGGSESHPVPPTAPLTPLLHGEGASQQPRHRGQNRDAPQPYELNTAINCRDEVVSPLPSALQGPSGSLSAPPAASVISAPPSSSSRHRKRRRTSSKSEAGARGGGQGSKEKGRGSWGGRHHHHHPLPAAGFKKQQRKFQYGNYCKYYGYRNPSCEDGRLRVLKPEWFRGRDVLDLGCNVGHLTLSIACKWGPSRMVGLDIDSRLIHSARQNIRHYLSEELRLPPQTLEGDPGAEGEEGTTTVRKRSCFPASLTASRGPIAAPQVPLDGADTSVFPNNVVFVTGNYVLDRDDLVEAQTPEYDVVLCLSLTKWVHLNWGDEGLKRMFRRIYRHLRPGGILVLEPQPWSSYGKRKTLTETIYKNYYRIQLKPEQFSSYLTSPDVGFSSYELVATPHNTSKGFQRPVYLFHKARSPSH
# UniProt Q7L5Y1: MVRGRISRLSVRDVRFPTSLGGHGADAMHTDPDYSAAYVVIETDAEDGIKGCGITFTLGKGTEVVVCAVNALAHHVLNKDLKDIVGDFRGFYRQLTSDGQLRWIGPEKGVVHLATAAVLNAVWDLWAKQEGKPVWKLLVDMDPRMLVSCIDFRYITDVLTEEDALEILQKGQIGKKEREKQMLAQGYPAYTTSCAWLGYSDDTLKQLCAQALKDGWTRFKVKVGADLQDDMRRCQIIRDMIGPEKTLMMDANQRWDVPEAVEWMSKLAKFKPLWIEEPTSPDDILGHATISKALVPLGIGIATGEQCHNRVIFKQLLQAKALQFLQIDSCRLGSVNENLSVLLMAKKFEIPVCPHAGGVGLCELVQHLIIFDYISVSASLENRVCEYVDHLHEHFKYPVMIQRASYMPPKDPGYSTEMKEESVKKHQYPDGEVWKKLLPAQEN
# UniProt Q86TJ5: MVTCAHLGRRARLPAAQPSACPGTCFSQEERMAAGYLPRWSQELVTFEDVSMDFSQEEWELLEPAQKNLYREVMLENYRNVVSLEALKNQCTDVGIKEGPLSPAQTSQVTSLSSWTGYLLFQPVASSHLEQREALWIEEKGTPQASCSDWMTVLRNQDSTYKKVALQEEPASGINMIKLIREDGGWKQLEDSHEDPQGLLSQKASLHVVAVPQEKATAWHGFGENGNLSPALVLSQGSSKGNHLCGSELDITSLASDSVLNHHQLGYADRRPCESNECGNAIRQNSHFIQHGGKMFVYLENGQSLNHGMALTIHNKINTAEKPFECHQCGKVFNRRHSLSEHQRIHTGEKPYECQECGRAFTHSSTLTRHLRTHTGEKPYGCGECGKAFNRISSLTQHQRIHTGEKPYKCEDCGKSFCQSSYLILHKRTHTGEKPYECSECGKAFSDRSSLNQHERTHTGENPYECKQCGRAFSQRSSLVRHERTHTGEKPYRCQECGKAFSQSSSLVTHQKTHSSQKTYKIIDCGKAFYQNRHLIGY
# UniProt Q86UQ0: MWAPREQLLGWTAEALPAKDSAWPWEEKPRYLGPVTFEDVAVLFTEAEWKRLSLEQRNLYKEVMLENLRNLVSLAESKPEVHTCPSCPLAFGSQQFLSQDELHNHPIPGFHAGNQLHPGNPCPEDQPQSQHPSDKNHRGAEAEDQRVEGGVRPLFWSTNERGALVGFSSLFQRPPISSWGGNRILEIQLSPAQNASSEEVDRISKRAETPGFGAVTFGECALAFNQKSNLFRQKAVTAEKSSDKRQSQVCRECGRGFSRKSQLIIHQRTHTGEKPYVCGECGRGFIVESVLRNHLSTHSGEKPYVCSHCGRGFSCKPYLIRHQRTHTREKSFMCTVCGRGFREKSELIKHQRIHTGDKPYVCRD
# UniProt Q7L8J4: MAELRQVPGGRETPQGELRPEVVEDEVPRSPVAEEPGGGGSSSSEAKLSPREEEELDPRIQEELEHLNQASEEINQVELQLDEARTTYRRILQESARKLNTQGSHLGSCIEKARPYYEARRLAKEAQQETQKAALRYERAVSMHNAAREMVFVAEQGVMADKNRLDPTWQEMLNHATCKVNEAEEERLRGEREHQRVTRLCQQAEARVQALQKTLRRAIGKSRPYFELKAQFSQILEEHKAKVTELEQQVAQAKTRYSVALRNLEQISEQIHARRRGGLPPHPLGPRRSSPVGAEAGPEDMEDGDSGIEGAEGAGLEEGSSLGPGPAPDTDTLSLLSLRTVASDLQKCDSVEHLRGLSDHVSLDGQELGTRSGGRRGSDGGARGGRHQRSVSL
# UniProt Q6ZN19: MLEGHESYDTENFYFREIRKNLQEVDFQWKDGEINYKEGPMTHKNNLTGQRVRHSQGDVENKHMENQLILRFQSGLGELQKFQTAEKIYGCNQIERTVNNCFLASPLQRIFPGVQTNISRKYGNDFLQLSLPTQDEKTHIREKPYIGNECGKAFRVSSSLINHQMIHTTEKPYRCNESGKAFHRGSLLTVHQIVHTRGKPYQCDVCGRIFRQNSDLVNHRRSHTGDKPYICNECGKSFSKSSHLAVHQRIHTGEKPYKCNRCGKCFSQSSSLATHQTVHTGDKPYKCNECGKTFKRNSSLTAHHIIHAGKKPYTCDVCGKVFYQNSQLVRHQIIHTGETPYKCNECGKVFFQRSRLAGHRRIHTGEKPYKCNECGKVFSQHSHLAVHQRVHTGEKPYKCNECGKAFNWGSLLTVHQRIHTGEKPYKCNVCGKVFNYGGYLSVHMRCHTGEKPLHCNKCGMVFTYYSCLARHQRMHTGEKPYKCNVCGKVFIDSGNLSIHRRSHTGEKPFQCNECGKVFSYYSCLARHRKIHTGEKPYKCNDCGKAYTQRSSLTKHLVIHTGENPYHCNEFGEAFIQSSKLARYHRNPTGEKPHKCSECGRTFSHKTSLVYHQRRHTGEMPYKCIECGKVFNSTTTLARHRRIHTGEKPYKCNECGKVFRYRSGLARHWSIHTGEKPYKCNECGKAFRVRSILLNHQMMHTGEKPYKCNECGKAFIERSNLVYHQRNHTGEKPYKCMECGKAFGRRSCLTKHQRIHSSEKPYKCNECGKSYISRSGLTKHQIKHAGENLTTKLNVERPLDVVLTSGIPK
# UniProt Q7Z2E3: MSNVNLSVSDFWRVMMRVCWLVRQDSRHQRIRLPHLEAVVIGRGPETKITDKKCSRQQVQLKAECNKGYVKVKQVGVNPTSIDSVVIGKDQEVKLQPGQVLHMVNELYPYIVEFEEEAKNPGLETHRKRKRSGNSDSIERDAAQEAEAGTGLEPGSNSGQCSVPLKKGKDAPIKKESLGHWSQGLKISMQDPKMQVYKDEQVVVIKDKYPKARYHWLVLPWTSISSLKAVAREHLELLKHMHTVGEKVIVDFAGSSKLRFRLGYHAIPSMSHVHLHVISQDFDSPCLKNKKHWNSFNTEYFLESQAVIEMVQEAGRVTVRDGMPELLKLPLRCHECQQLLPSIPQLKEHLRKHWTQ
# UniProt Q7L2R6: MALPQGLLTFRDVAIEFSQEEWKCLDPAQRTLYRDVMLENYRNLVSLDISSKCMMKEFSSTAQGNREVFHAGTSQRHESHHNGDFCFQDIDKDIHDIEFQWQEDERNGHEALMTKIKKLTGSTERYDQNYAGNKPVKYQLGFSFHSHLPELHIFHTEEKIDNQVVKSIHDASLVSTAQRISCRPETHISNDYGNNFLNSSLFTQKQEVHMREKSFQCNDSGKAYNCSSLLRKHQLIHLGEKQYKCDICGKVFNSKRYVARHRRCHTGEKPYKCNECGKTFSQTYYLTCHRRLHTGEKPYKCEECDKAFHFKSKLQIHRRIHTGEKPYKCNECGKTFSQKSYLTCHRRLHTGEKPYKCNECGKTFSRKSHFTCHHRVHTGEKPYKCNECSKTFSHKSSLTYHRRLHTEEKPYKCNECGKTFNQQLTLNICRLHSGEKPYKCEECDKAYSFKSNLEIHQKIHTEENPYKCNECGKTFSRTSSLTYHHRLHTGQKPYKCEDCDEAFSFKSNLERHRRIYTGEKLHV
# UniProt Q7Z3B4: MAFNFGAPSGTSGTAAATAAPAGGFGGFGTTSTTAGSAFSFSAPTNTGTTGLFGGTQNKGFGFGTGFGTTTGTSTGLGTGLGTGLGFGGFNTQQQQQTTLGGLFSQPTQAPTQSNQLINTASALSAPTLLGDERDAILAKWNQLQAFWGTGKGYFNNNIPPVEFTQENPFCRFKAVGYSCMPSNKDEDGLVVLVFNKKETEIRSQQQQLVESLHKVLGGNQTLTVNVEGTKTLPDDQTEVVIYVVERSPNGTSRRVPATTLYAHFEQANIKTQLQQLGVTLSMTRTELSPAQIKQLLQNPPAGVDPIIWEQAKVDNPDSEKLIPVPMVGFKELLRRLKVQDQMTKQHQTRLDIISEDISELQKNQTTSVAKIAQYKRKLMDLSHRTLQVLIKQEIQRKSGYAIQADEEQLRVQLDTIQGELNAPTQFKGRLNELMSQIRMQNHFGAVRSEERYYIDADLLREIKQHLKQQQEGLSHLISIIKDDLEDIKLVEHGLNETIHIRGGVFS
# UniProt Q6UXH1: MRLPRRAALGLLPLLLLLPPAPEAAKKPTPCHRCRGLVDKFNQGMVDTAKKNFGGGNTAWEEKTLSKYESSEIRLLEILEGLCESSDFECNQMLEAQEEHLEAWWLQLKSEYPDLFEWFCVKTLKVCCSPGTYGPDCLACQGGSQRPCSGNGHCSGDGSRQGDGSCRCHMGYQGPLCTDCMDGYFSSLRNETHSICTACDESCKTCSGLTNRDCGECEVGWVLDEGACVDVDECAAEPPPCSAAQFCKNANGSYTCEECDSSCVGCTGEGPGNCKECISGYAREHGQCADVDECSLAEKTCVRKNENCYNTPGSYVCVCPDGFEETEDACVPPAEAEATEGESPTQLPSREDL
# The list shows a part of the results. Most entries show no effect beyond the scatter of the controls.
# Compound: Cc1nc(Nc2ncc(C(=O)Nc3c(C)cccc3Cl)s2)cc(N2CCN(CCO)CC2)n1 [dasatinib]
# Assay: log2 fold change of tryptic peptide abundance, ligand vs vehicle (limited proteolysis) (log2 ratio); higher = more trypsin-susceptible (destabilized)
# Settings: ligand concentration: 5 uM; sample: K562 cleared lysate
row,Target,log2 fold change
1,"UniProt Q7RTT6 (peptide sequence: YFSKEEWEK, peptide start residue: 31)",0.0239
2,"SSH2 (peptide sequence: SLSHSPGVVK, peptide start residue: 1223) (UniProt Q76I76)",0.272
3,"UniProt Q86T90 (peptide sequence: VTDASISMESLK, peptide start residue: 59)",0.467
4,"SETD3 (peptide sequence: EDYFPDLMK, peptide start residue: 76) (UniProt Q86TU7)",-0.317
5,"UniProt Q7L1Q6 (peptide sequence: GFSESERNK, peptide start residue: 141)",0.287
6,"UniProt Q7Z7B0 (peptide sequence: LREEEEKLK, peptide start residue: 275)",-0.231
7,"MEPCE (peptide sequence: HHHHHPLPAAGFK, peptide start residue: 395) (UniProt Q7L2J0)",-0.457
8,"MTDH (peptide sequence: WNSVSPASAGK, peptide start residue: 304) (UniProt Q86UE4)",0.261
9,"PXK (peptide sequence: WEVVEPLKDIGWR, peptide start residue: 146) (UniProt Q7Z7A4)",-0.645
10,"ZBTB33 (peptide sequence: KYPCRYCEK, peptide start residue: 521) (UniProt Q86T24)",0.197
11,"ENOSF1 (peptide sequence: VGADLQDDMR, peptide start residue: 223) (UniProt Q7L5Y1)",0.396
12,"FAM122B (peptide sequence: MELDLEPDTSYGGTLRR, peptide start residue: 6) (UniProt Q7Z309)",0.126
13,"UniProt Q86TJ5 (peptide sequence: THTGEKPYECSECGK, peptide start residue: 480)",-0.0298
14,"UniProt Q6ZVC0 (peptide sequence: AGGVLNK, peptide start residue: 569)",0.173
15,"UniProt Q86UQ0 (peptide sequence: VEGGVRPLFWSTNER, peptide start residue: 147)",0.25
16,"RPAIN (peptide sequence: LVGSPPWKEAFR, peptide start residue: 15) (UniProt Q86UA6)",0.172
17,"SH3BP5L (peptide sequence: LSPREEEELDPR, peptide start residue: 48) (UniProt Q7L8J4)",-0.391
18,"UniProt Q6ZN19 (peptide sequence: GSLLTVHQIVHTR, peptide start residue: 185)",0.492
19,"TRPT1 (peptide sequence: THIHLAPGLPGDPGIISGMR, peptide start residue: 151) (UniProt Q86TN4)",-0.12

row,Target,log2 fold change
1,"APTX (peptide sequence: ESLGHWSQGLK, peptide start residue: 176) (UniProt Q7Z2E3)",-0.0666
2,"KANSL1 (peptide sequence: LNLVSSSSDGTCVAARTRPVLSCK, peptide start residue: 577) (UniProt Q7Z3B3)",-0.431
3,"PCGF5 (peptide sequence: ESEFWKK, peptide start residue: 94) (UniProt Q86SE9)",-0.446
4,"RANBP10 (peptide sequence: AGLGSCSFAR, peptide start residue: 605) (UniProt Q6VN20)",-0.108
5,"SMG6 (peptide sequence: KQHEEFDLSPDQWR, peptide start residue: 823) (UniProt Q86US8)",-0.252
6,"MIER3 (peptide sequence: DNEQALYELLK, peptide start residue: 246) (UniProt Q7Z3K6)",0.159
7,"UniProt Q7L2R6 (peptide sequence: SIHDASLVSTAQR, peptide start residue: 167)",-0.124
8,"UniProt Q7Z6W7 (peptide sequence: WHPDKNPENKEEAER, peptide start residue: 30)",0.0744
9,"UniProt Q70UQ0 (peptide sequence: GAPAAEPGKR, peptide start residue: 14)",-0.0802
10,"UniProt Q6ZS17 (peptide sequence: GLANHVVVGSVSCETK, peptide start residue: 277)",-0.406
11,"NUP54 (peptide sequence: MQNHFGAVR, peptide start residue: 440) (UniProt Q7Z3B4)",-0.158
12,"KCTD9 (peptide sequence: ANLEGANLK, peptide start residue: 303) (UniProt Q7L273)",0.182
13,"UBN2 (peptide sequence: QLGVVALNSHK, peptide start residue: 300) (UniProt Q6ZU65)",-0.425
14,"CRELD2 (peptide sequence: NFGGGNTAWEEK, peptide start residue: 52) (UniProt Q6UXH1)",0.021
15,"UniProt Q6ZSB9 (peptide sequence: TLDESHPHASPSVNR, peptide start residue: 169)",-0.064
16,"RAB11FIP1 (peptide sequence: KLEEMGLNLR, peptide start residue: 790) (UniProt Q6WKZ4)",0.426
17,"DNAH12 (peptide sequence: KENELMAK, peptide start residue: 601) (UniProt Q6ZR08)",0.0848
18,"MIGA2 (peptide sequence: EFAEKLESLLHR, peptide start residue: 232) (UniProt Q7L4E1)",0.0637
19,"UniProt Q7L0Y3 (peptide sequence: HDKVYVIGSFVDKSMQPGTSLAK, peptide start residue: 303)",0.186

# An excerpt of these results, tab-delimited:
row	Target	log2 fold change
10	UniProt Q6ZS17 (peptide sequence: GLANHVVVGSVSCETK, peptide start residue: 277)	-0.406
11	NUP54 (peptide sequence: MQNHFGAVR, peptide start residue: 440) (UniProt Q7Z3B4)	-0.158
